# According to PubChem BioAssay:
# Some of the results follow. The main result of the screen is listed elsewhere. These columns were measured beside it and carry no call. The list favours compounds with an active or inconclusive main result.
# Assay: reducers of endogenous Her2 protein level, primary screen, SKBR3 breast tumor cells, AlphaScreen, ATP viability (AID 461);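 further: percent of carrier control wells set as 100% viability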
# Conditions: 18-24 h, measured here: SKBR3 viability, ATP luminescence, at 10 µM
row,SMILES,viability [%]
1,CN1C[C@H](CNC(=O)OCc2ccccc2)C[C@@H]2c3cccc4c3c(cn4C)C[C@H]21,50.5
2,CCCNC(=O)c1c(N)n(Cc2ccc3c(c2)OCO3)c2nc3ccccc3nc12,102
3,N=C(N)c1c(O)n(C2CCCCC2)c(=O)n(C2CCCCC2)c1=O,53.5
4,O=C(CN1C2CCC1CC(O)(c1cccnc1)C2)Nc1ccc2c(c1)OCO2 (stereo unspecified),72
5,Cc1cccc(C2=NCC(=O)N(CC(=O)NCc3ccco3)c3sc4c(c32)CCCC4)c1,102
6,Clc1ccc(COC(Cn2ccnc2)c2ccc(Cl)cc2Cl)cc1 (stereo unspecified),123
7,CCC(C)NC(=O)c1c(N)n(CC2CCCO2)c2nc3ccccc3nc12 (stereo unspecified),93
8,COc1ccc(CCn2c(O)c(C=NCc3cccnc3)c(=O)[nH]c2=O)cc1OC,63
9,Cc1ccc2c(c1)[C@@H]1CN(C)CC[C@@H]1N2C(=O)Nc1cccc(C(F)(F)F)c1,67.5
10,O=c1[nH]c2ccccc2n1C1CCN(CCCC(c2ccc(F)cc2)c2ccc(F)cc2)CC1,52.5
11,CC(C)OCCCNC(=O)c1c(N)n(Cc2cccs2)c2nc3ccccc3nc12,26
